# Test results taken from PMC10889443.
# The exact form of at least one protein or probe is not confirmed.
# Test system: MBP-IbMYC2
# Assay: EMSA
# Conditions: EMSA/Gel-Shift Kit (Beyotime), manufacturer's protocol; pH and temperature not stated; unlabeled probes as competitors; recombinant protein; protein details: MBP (pETM-40, NcoI/XhoI); label: 5' biotin
row,Sequence,binding result
1,ATGAAGCATGCACGCACGTGCTTGGGTTTT (double strand) [IbDFR probe (G-box)],binds
2,TTCGGATCGGCACGTGCTTTCCCGCCTTCT (double strand) [IbCHI probe (G-box)],binds
